These are yes or no findings as the source states them, for the method shown. In cells and extracts the contact can be indirect. Here binding means that the protein was enriched with, or labelled near, the bait; the list need not be complete. Sequences can lack the tags named with a protein.
Target: T1, KIF1C (endogenous, untagged) (mouse (endogenous in YUMM1.7)) (UniProt O35071)
T1 sequence: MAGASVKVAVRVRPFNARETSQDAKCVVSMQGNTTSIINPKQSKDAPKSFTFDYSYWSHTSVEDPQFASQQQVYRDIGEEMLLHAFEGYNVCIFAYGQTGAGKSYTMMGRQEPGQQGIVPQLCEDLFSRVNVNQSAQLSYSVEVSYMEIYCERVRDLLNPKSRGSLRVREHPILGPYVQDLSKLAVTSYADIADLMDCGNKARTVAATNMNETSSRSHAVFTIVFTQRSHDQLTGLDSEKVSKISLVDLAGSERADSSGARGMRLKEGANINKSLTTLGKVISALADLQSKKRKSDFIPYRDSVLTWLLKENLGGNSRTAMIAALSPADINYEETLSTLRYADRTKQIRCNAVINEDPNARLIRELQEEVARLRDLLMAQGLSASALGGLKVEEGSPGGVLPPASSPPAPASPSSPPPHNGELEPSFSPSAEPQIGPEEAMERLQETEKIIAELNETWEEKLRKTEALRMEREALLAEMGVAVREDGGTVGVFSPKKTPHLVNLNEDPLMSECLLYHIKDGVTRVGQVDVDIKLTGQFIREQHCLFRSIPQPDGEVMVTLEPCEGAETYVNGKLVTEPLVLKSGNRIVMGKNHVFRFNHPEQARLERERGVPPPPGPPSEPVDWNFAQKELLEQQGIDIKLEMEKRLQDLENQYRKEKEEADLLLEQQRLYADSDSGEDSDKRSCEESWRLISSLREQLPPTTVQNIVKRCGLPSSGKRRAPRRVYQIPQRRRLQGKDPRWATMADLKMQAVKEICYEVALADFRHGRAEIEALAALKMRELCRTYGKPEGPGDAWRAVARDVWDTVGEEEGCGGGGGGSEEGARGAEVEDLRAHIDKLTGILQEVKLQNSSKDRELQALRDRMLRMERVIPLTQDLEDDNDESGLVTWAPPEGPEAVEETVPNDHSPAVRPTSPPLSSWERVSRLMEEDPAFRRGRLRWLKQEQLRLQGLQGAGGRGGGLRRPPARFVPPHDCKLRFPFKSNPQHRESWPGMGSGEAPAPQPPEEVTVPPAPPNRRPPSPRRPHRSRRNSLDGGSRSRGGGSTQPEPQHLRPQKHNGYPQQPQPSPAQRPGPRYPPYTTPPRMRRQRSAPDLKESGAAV
Test: affinity purification with mass spectrometry; IP of endogenous KIF1C with α-KIF1C antibody (Bethyl A301-072A) and protein G Dynabeads from lysates of Kif1c+/+ and Kif1c ΔGA1,2 YUMM1.7 cells, Kif1c LOF cells as negative control; 4.5-5 mg total protein; washes 50 mM Tris pH 7.4, 150 mM NaCl, 0.02% NP-40; hits more than threefold enriched over …

Chains of the proteins cited; added tags and fusions are not shown. Lines headed by an entry give the natural chain unless they say otherwise; changes in a name come on top.
UniProt Q60598: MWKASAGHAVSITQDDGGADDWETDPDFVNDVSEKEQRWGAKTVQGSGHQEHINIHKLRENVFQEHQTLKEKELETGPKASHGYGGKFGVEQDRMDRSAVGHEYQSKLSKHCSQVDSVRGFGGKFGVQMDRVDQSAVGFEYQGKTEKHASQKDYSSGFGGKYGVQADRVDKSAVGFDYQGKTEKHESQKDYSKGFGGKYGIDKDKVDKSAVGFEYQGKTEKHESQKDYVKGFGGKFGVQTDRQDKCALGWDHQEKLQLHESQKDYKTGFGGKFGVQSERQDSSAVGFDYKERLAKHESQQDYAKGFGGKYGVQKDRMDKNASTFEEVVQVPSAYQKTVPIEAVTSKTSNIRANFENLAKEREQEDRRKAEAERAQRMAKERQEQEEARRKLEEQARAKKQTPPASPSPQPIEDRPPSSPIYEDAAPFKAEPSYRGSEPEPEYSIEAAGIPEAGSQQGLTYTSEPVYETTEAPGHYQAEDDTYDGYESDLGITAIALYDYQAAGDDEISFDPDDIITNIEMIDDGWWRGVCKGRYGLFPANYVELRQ
UniProt P13020: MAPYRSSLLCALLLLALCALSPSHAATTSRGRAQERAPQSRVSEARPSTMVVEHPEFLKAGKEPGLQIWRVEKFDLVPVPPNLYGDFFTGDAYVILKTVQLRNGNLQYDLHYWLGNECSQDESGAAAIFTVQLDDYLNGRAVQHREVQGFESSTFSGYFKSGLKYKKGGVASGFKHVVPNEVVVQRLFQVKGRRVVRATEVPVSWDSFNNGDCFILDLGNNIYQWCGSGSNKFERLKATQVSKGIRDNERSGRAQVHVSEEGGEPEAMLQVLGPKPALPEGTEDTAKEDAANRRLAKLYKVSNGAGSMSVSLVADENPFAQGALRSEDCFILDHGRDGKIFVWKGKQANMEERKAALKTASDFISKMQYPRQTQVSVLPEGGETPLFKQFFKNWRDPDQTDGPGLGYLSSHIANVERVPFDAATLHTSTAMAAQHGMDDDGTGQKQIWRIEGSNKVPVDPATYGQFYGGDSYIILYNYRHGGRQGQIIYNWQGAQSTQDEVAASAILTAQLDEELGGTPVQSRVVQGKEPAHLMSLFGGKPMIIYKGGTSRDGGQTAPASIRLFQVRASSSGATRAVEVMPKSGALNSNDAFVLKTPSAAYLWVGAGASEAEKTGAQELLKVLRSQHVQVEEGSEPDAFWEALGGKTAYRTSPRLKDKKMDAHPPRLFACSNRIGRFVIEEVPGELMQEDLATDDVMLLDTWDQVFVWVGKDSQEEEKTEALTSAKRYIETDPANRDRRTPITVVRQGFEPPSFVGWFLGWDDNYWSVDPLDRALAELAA
UniProt P35279: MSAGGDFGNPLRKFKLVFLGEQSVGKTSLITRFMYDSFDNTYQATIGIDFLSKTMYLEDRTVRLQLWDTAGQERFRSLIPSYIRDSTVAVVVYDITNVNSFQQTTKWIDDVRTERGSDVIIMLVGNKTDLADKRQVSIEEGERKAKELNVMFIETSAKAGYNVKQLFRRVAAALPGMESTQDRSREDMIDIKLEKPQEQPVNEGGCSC

binding, binds:
CTTN (from UniProt Q60598 1-546)
GSN (from UniProt P13020)
RAB6A (from UniProt P35279 1-208)
TPM1 (from UniProt P58771 1-284)

Source: article PMC10111864
